Earlier results as cited in patent publication US9457022B2, “Methods and compositions for treating or preventing symptoms of hormonal variations” (priority 2010, dated 2016).
Some entries share one result that the patent states for a list of compounds.

System: hot flashes
Conditions: pilot studies; cited from earlier work

Structure (SMILES): Fc1ccc([C@@H]2CCNC[C@H]2COc2ccc3c(c2)OCO3)cc1 [paroxetine]
- Hot-flash score reduction: 55%-75%
